Results from PubChem BioAssay AID743317 (Broad Institute, 2014).
Inconclusive results, whose numbers are uncertain, are shown with a selection of clear calls. The source made the active and inactive calls.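 How the source made its calls: active means fitted curve reaches 40% activation at or below the top valid dose, and every replicate test is called active; inconclusive means replicate tests disagree, some active and some inactive; inactive means all replicate tests inactive, including activity in the wrong direction.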

Amino acid sequences for entries named in this document (tags omitted). A change or cut given only in a name is not applied to a line headed by its entry.
UniProt Q9NZ08: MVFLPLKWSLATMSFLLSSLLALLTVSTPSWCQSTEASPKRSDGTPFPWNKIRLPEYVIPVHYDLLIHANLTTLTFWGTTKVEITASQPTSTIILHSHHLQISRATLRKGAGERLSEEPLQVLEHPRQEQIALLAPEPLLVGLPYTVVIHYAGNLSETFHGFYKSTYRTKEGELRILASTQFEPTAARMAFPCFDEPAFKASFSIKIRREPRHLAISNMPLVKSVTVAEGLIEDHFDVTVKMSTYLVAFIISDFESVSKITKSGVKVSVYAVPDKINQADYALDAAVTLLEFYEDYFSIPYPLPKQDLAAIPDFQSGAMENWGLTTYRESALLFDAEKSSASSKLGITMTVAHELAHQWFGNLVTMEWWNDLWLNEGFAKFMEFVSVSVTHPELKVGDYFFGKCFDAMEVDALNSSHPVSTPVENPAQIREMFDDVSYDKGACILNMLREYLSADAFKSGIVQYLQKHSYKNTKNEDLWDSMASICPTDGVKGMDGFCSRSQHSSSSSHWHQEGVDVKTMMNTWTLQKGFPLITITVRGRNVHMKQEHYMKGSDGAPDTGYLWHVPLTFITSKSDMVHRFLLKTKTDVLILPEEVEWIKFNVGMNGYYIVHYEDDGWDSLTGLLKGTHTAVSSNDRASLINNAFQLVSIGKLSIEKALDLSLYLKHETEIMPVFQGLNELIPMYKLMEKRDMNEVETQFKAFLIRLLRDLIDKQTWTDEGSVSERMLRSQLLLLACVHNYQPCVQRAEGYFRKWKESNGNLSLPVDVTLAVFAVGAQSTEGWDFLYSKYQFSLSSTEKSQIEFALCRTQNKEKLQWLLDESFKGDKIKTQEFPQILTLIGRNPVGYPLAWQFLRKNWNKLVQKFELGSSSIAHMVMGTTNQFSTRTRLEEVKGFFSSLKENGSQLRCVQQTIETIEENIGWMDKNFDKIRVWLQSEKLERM

Each molecule was assayed against Endoplasmic reticulum aminopeptidase 1 (Homo sapiens) (UniProt Q9NZ08) (assay: ERAP1 aminopeptidase activity change, dose response, biochemical, fluorescence, cherry-pick (AID 743317)). Conditions: ERAP1 enzyme, Leu-AMC fluorescence, 60 min; at 11 µM (top of the series) unless noted.

| Structure (SMILES) | activity increase (activation) |
| --- | --- |
| C[C@H](CO)N1C[C@H](C)[C@@H](CN(C)Cc2ccc(C(=O)O)cc2)OCCCC[C@H](C)Oc2ccc(NC(=O)Nc3ccccc3)cc2C1=O | inconclusive: 58.9% |
| Cc1c(C)c2ccc(O)c(CN3CCN(C)CC3)c2oc1=O | inactive: -52.8% |
| CCCNC(=O)[C@H]1[C@H](CO)[C@H]2Cn3c(ccc(/C=C/c4ccccc4)c3=O)[C@H]2N1CCC | inconclusive: -5.42% |
| CCc1cc(=O)oc2c(CNCc3c(F)cccc3Cl)c(O)ccc12 | inactive: -60.7% |
| CN(C)C(=O)c1cccc(-c2ccc3c(c2)[C@@H]2[C@@H](CCN2Cc2nccs2)[C@@H](CO)N3)c1 | inconclusive: 33.6% |
| CC(C)(C)c1cc(N2CCOCC2)n2ncc(-c3ccccc3)c2n1 | inactive: -42% |
| CCC(=O)N1[C@@H]2c3ccc(/C=C/c4ccccc4)c(=O)n3C[C@H]1[C@H](CO)[C@H]2C(=O)N(C)C | inconclusive: -47% |
| CN1[C@@H]2Cn3c(ccc(/C=C/c4ccccc4)c3=O)[C@H]1[C@@H](C(=O)NC1CCCC1)[C@@H]2CO | inconclusive: -50.2% |
| C[C@H](CO)N1C[C@H](C)[C@H](CN(C)Cc2ccc(C(=O)O)cc2)Oc2ccc(NC(=O)Nc3cccc4ccccc34)cc2CC1=O | inconclusive: -31.5% |
| C[C@H]1CN([C@@H](C)CO)C(=O)c2cc(-c3ccc(F)cc3)cnc2O[C@H]1CN(C)CC1CCCCC1 | inconclusive: 36.7% |
| COc1ccc2c3c([nH]c2c1)[C@H](CO)N(Cc1ccccc1OC)CC31CN(C)C1 | inconclusive: -22.5% |
| O=C(NCC1CC1)[C@@H]1[C@@H](CO)[C@@H]2Cn3c(ccc(/C=C/c4ccccc4)c3=O)[C@H]1N2C(=O)C1CC1 | inconclusive: -23.2% |
| COC(=O)[C@H]1[C@H](CO)[C@H]2Cn3c(ccc(-c4ccncc4)c3=O)[C@H]2N1Cc1ccccc1F | inconclusive: -44% |
| CCNC(=O)[C@@H]1[C@@H](CO)[C@@H]2Cn3c(ccc(/C=C/c4ccccc4)c3=O)[C@H]1N2C(=O)C1CCCC1 | inconclusive: -47.5% |
| CCC(=O)N(C)C[C@@H]1Oc2ncc(C#Cc3ccncc3)cc2C(=O)N([C@@H](C)CO)C[C@@H]1C | inconclusive: -79.7% |
| C/C=C/c1ccc([C@H]2[C@@H](CO)N(C(=O)CC)[C@@H]2CNCC2CCCCC2)cc1 | inconclusive: 38.1% |
| COC(=O)Cc1c(C)c2ccc(O)c(CNCc3ccc(OC)c(OC)c3)c2oc1=O | inactive: -74.1% [at 5.6 µM] |
| CC(=O)N(C)C[C@H]1Oc2cc(C#CC(C)C)ccc2S(=O)(=O)N([C@@H](C)CO)C[C@H]1C | inconclusive: 37.2% |
| C[C@H](CO)N1C[C@H](C)[C@H](CN(C)C(=O)Nc2ccccc2)Oc2ncccc2C1=O | inconclusive: -27.1% |
| CC(=O)N1CCCCN2[C@H](CO)[C@@H](c3ccc(-c4ccccc4)cc3)[C@H]2C1 | inconclusive: 32.8% |
| CCC(=O)N(C)C[C@H]1Oc2ncc(C#Cc3ccncc3)cc2C(=O)N([C@H](C)CO)C[C@H]1C | inconclusive: -79.6% |
| O=c1oc2c(CN3CCN(CCO)CC3)c(O)ccc2cc1-c1ccccn1 | inactive: -80.1% |
| CCCC(=O)Nc1ccc2c(c1)OC[C@@H](C)N(CC1CCOCC1)C[C@H](C)[C@@H](OC)CN(C)C2=O | inconclusive: 37.4% |
| Cc1c(O)ccc2cc(S(=O)(=O)c3ccccc3)c(=O)oc12 | inactive: -94% |
| CC(=O)N1[C@@H]2c3ccc(/C=C/c4ccccc4)c(=O)n3C[C@H]1[C@H](CO)[C@H]2C(=O)N(C)C | inconclusive: -93% |
| COc1ccc(NC(=O)N[C@@H]2CC[C@@H](CCn3cc(-c4ccc(F)cc4)nn3)O[C@H]2CO)cc1 | inconclusive: 32.5% |
| COCC(=O)N1[C@@H]2Cn3c(ccc(/C=C/c4ccccc4)c3=O)[C@H]1[C@@H](C(=O)N1CCOCC1)[C@@H]2CO | inconclusive: -66.3% |
| CN1[C@@H]2c3ccc(/C=C/c4ccccc4)c(=O)n3C[C@@H]2[C@@H](CO)[C@@H]1C(=O)NC1CCCC1 | inactive: -14.6% |
| Cc1cc(=O)oc2c(CN3CCN(C)CC3)c(O)c(Cl)cc12 | inactive: -69.3% |
| O=C(NCc1ccccn1)[C@@H]1[C@@H](CO)[C@@H]2Cn3c(ccc(/C=C/c4ccccc4)c3=O)[C@H]1N2CC1CC1 | inconclusive: -66.7% |

Reprinted at random: 2 compounds from above, in no set order.

| Structure (SMILES) | activity increase (activation) |
| --- | --- |
| O=C(NCC1CC1)[C@@H]1[C@@H](CO)[C@@H]2Cn3c(ccc(/C=C/c4ccccc4)c3=O)[C@H]1N2C(=O)C1CC1 | inconclusive: -23.2% |
| Cc1c(C)c2ccc(O)c(CN3CCN(C)CC3)c2oc1=O | inactive: -52.8% |
